# Results: paper PMC8102552
# The chains behind the UniProt entries cited, without tags or fusion partners.
# UniProt A2AWL7: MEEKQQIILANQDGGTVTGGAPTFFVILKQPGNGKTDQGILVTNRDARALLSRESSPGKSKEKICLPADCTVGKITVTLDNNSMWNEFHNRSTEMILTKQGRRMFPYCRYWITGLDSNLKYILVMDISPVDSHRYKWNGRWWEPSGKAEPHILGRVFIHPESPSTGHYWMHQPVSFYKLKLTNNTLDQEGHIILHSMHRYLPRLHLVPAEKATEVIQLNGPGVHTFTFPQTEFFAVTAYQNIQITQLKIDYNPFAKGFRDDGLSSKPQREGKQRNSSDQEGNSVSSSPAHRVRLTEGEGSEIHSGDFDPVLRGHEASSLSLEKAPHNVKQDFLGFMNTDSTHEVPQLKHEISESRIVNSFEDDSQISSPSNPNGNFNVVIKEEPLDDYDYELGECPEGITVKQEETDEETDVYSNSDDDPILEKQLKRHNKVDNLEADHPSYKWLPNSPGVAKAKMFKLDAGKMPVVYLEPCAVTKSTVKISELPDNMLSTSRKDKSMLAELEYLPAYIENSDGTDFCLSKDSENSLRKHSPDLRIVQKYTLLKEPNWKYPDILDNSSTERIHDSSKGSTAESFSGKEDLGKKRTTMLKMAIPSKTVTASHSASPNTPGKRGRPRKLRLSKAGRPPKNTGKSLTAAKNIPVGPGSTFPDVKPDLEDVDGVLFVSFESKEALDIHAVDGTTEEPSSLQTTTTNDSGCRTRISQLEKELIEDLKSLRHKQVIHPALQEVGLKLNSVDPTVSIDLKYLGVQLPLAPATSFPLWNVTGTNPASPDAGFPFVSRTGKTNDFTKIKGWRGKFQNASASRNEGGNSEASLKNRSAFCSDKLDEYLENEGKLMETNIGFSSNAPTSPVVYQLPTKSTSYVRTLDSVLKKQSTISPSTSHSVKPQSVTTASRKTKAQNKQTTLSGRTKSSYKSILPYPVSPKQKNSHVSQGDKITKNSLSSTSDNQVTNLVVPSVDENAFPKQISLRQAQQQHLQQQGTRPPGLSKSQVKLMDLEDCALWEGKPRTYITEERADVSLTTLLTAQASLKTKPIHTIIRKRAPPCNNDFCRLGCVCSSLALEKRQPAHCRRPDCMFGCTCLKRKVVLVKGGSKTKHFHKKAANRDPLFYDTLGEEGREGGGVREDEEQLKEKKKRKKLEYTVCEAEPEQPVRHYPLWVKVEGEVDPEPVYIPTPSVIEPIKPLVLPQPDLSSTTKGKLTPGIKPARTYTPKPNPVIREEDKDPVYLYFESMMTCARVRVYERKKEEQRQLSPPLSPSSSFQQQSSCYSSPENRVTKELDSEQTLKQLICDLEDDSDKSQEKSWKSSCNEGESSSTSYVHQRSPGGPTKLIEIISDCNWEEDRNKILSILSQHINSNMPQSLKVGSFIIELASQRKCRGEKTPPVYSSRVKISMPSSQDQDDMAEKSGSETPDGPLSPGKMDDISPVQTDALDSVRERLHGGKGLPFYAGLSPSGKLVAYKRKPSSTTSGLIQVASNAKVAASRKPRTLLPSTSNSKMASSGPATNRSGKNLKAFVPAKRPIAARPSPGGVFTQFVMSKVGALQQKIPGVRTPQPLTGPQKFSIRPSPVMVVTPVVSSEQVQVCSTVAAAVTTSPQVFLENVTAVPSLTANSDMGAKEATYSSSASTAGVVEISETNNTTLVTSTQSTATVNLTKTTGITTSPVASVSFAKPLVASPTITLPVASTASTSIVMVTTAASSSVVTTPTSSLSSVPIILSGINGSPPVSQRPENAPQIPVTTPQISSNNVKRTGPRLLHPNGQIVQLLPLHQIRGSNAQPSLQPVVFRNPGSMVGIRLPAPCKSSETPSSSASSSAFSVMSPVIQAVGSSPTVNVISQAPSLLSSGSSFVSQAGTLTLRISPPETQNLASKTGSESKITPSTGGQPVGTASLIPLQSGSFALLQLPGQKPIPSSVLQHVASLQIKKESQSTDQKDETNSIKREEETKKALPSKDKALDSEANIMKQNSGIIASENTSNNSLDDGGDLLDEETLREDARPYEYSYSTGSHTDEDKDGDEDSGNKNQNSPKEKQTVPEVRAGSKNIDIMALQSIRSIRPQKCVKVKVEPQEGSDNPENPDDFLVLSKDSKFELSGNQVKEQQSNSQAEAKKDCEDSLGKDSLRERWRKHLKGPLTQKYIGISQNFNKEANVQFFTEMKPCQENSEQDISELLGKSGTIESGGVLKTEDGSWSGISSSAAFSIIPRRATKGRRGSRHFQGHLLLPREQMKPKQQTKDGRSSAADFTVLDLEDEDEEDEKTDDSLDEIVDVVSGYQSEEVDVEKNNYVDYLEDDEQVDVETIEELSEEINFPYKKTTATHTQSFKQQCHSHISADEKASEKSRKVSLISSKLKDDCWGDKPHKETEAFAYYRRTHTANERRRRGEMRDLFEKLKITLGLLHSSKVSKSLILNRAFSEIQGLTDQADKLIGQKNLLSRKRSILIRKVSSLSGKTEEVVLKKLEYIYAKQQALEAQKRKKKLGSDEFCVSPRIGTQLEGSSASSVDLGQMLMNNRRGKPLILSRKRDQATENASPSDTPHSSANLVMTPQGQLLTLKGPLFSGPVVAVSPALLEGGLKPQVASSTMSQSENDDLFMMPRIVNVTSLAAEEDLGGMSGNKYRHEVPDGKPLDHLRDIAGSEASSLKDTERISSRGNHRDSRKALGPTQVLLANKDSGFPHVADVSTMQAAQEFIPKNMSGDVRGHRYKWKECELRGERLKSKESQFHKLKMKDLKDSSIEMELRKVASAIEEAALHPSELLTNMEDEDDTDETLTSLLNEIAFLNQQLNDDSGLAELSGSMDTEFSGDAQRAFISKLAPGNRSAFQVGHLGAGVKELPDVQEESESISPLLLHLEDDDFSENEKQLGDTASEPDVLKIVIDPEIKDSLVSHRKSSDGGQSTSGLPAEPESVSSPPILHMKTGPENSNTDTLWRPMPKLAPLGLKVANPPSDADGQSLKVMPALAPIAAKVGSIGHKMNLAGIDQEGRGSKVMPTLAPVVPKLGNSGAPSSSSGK
# UniProt Q13185: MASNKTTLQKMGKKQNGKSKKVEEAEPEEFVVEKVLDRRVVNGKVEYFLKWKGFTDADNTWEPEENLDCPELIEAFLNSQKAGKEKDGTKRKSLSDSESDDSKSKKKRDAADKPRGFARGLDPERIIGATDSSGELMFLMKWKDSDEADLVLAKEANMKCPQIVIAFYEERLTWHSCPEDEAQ
# UniProt P61244: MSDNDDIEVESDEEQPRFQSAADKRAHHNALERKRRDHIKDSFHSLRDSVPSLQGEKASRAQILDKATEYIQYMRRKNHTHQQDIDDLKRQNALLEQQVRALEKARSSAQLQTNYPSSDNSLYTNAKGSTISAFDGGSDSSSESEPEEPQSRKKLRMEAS
# UniProt Q99496: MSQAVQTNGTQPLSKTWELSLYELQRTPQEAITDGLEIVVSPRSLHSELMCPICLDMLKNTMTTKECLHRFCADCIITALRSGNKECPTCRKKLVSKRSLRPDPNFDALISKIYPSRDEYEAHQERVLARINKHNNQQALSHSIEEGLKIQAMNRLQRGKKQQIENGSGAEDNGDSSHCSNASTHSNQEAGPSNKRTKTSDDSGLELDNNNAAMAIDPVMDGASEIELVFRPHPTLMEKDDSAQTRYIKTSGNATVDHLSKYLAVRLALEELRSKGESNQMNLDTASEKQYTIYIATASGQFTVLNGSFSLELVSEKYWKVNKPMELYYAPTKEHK
# UniProt Q15022: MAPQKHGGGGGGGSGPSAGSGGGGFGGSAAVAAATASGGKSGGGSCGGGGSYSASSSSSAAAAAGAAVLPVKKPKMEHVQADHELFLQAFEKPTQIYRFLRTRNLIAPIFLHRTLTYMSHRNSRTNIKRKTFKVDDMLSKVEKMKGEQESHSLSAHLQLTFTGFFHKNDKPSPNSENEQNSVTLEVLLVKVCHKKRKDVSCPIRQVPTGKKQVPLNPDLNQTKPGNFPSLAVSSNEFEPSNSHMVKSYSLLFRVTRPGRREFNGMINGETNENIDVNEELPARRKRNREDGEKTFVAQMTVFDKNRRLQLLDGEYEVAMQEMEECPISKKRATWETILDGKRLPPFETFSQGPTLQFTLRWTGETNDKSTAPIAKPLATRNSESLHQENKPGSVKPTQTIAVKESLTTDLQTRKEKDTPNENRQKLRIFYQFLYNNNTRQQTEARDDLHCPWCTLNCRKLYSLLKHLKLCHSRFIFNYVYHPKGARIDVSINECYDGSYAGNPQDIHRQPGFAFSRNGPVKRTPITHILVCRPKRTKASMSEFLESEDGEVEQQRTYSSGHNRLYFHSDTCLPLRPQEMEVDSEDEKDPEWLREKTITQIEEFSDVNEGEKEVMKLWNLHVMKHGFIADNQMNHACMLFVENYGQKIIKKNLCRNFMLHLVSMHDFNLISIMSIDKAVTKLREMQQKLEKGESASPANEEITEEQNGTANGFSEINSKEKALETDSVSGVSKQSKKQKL
# No constants are given. Whether binding was seen depends on the method and setting. Binding seen in cells or lysates may run through a third protein. Some binding calls cover weakened binding; strength is not graded here.
# B1: PCGF6 (protein, UniProt Q9BYE7 1-350)
# chain: MEGVAVVTAGSVGAAKTEGAAALPPPPPVSPPALTPAPAAGEEGPAPLSETGAPGCSGSRPPELEPERSLGRFRGRFEDEDEELEEEEELEEEEEEEEEDMSHFSLRLEGGRQDSEDEEERLINLSELTPYILCSICKGYLIDATTITECLHTFCKSCIVRHFYYSNRCPKCNIVVHQTQPLYNIRLDRQLQDIVYKLVINLEEREKKQMHDFYKERGLEVPKPAVPQPVPSSKGRSKKVLESVFRIPPELDMSLLLEFIGANEGTGHFKPLEKKFVRVSGEATIGHVEKFLRRKMGLDPACQVDIICGDHLLEQYQTLREIRRAIGDAAMQDGLLVLHYGLVVSPLKIT
# Target: Flag-tagged canonical MGA (mouse) (UniProt A2AWL7)
# Experiment: co-IP; anti-Flag antibody (control: normal mouse IgG) with Dynabeads bearing anti-mouse IgG added to nuclear extract (300 mM NaCl) of transiently transfected HEK293FT cells (MGA-null by the legend); 1 h at 4 °C; washed with PBS containing 0.1% BSA; western blot
row,binding,Molecule
1,binds,HP1γ (from UniProt Q13185 1-183)
2,binds,MAX (from UniProt P61244 1-160)
3,binds,RING1B (from UniProt Q99496 1-336)
4,no binding,SUZ12 (from UniProt Q15022 1-739)
5,binds,B1
